Laboratory results reported in ChEMBL document CHEMBL2434821, “New phenstatin-fatty acid conjugates: synthesis and evaluation” (Bioorg Med Chem Lett, 2013).
pIC50: −log10 of the molar value.

Assay: Cytotoxicity against human H460 cells after 72 hrs by MTT assay
Type: functional, cell-based
Details: NCI-H460, 72 h

In the case of `COc1cc2c(c(OC)c1OC)-c1ccc(OC)c(=O)cc1[C@@H](NC(C)=O)CC2` [COLCHICINE], the pIC50 was 7.66.
